The results in this text go back to article PMC3166894.

Amino acid sequences for entries named in this document (tags omitted).
UniProt P35346: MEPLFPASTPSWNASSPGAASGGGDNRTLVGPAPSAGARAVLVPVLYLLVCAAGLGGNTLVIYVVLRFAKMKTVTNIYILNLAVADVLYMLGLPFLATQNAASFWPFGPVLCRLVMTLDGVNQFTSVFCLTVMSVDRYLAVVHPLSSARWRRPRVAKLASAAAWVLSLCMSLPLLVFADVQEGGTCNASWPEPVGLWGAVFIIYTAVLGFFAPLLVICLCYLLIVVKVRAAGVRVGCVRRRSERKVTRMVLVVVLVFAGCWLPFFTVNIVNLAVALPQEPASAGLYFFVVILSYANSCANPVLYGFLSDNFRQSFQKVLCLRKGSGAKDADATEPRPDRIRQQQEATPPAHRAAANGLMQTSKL

Results are given in words; binding and its absence hold for the method and conditions named. In cells and extracts the contact can be indirect. Some binding calls cover weakened binding; strength is not graded here.

Test [1] has as its target cMyc-tagged β2-adrenergic receptor (UniProt P07550). Kind of test: FRET or BRET; photobleaching FRET with directly labeled HA- and cMyc- antibodies (data not shown); basal or combined agonists.
Test [2] shares this target. Description: co-IP; membrane protein (250 μg) of cotransfected HEK-293 cells solubilised in RIPA buffer; immunoprecipitated for cMyc-β2AR, blotted with anti-HA; control cells and cells treated with SST (1 μM) and formoterol (1 μM) alone or in combination, 30 min, 37°C.

As to “HA-tagged human somatostatin receptor 5 (from UniProt P35346 1-364)”, the binding entry in test [1] and in test [2] was “binds” each time.
